Here are results for six molecules from article PMC4005652.

These are yes or no findings as the source states them, for the method shown. In cells and extracts the contact can be indirect. Binding calls can cover weak binding; strength is not graded here.

To fix the notation:
B1: CAF2 (protein, UniProt Q84N48 59-611)
chain: QEEPTDSGPTRTVTTNPAFRAAHLRTAYRKPVPPAAAAGEGEALLAADPTDAASGRAVVVGPSGLSFRLPGAPFDFQFSYSEAPRAPPLAIREPAFLPFAPPTMPRPWTGKAPLLTKEEKARRRGVRLHTPLGQETPQTVSAHGIMMEVRERRKMDLARVSPGDGRSREEVLGEPLTPSEVRALVKPHISHNRQLNIGRDGLTHNMLEMIHCHWRRQEICKVRCRGVPTVDMKNLCYHLEEKSGGKVIHRVGGVVFLYRGRHYDPKTRPRYPLMLWKPATPVYPKLIKEAPDGFTKEEADEMRRKGRDLLPICKLAKNGIYITLVKDVRDAFEGSDLVKIDCEGLNPSDYKKIGAKLRDLVPCVLLSFDDEQILMHRGKEWKSRYSKPLTLIPKVPKNNLAMTSVMNSSDEVSDANTQVAIREVLRPKMFKLWKSAVDSSLALLLDDAEANNLTPDSLLTLVEEFSVTSQAVEHSFPALLVTNGDASTDSLSAEYMNDEPETSVAGNEEGQLEQSPDLRDDEHFDVDMFERLESSVPLGSLPIDSMIERLNSE
B2: RNC1 (protein, UniProt A6YSL1 29-525)
chain: VLAVAADQTPPPAPPSEPANSPSRLLRELAQRKKAVSPKKKHPPRRFILKPPLDDERLTRRFLSSPQLSLKALPLLSSCLPSAPLSTADRTWMDEYLLEAKQALGYPLAPSETLGEGDDCPARHFDVLFYLAFQHLDPSSERTRMRHVRNGHSRLWFLGQYVLELAFCEFFLQRYPRESPGPMRERVFALIGKKVLPRWLKAASLHNLVFPYDDLDKMIRKDREPPSKAVFWAIFGAIYLCFGMPEVYRVLFEAFGMDPDDESCQPKLRRQLEDVDYVSVEFEKRQLTWQDVAAYRPPPDALFAHPRLFRACVPPGMHRFRGNIWDFDSRPKVMTTLGYPLPMNDRIPEITEARNIELGLGLQLCFLHPSKHKFEHPRFCYERLEYVGQKIQDLVMAERLLMKHLDAPGRWLAEKHRRTLMNKYCGRYLRDKHLQHYIIYGETVQDRFEHNRRLRNPSTTSVQQALHGLAYCVYGKPDVRRLMFEVFDFEQVQPKAV
B3: WTF1 (protein, UniProt B6TTV8 51-498)
chain: AQAAVKRRKEAPFDTVIQRDKKLKLVLKLRNILVAQPDRVMSLRELGRFRRDLGLTRKRRLIALLRRFPGVFDVVEEGVYSLRFRLTPAAERLYLDELRLRNESEGLAVAKLRKLLMMSQEKRILIEKVAHLKHDLGLPPEFRDTVCLRYPQYFRVVRMDRGPALELTHWDPELAVSAAELAEEESRAREAEERNLIIDRPLKFNRVRLPKGLKLTRGEARRIARFKEMPYISPYADFSHLRSGSDEKEKHACGVVHEILSLTVEKRTLVDHLTHFREEFRFSQSLRGMIIRHPDMFYVSFKGDRDSVFLREAYKDSQLVEKNQLVLLKEKMRALVAVPRFPRRAAVGTGEEAEGMNGSLQSRDQVSDEEYDDEDEGLSDMEDLISELSGGKSDADYEWGDGWFGENDDSPPDFGDDEVKVAMKIADGSANGSAPVPVFPDGRPRERW
B4: CRS1 (protein, UniProt Q9FYT6 41-715)
chain: AEATPSKFRIDSPKPAPARKNTKTAAKPLTAGVPGGRTHRAVLGIIRRVRSLELSDAPSPNSVHTSNSGAAAAAFHLTIELSPPREPGQYVVEKEKSRAVPWAAARDEGLKVALRREKKPREPTRAETELETHELRRLRRLARGIGRWARAKKAGVTDEVVKEVRREWASGEELAAVRIVEPLRRSMDRAREILEIKTGGLVVWTKGDMHFVYRGSKYQQNAKHSHTFLTNVHKDDAFQENDQSICGQKDEEPVKGTLYEREVNRLLDTLGPRFVDWWWDTPLPVDADLLPEFVPGSKTPYRLCPPGVRPTLADEELTYLRKLARLLPTHFALGRNTRLQGLAAAILKLWEKSLIAKIAVKIGIQNTNNEQMAWNLKHLTGGTVILRNKDFIILYRGKDFLPGGVAQTVIQREAQVHDEQVKEEEARLKAVDSLQMVGELSEESSLGTFREYQGFHAKFVHENTENSNTMIELEAEKYRLEKELKDHEWKLSVLNKKIERSNQALAKLHSSWSPSEQSADREHLTEEEKIMFRRIGRKMDGLVLLGRRGIFDGVIEEIHQHWKHKEVVKVITKQNQTRQIMYAASLLEVETGGILIAVEKLTTSHAIILYRGKNYRRPAKSSFSNLLTKREALRRSIEVQRRGSMKYFVRERQKSILELKRKLRYVTRQIRYRTP
B5: PPR10 (protein, UniProt B8Y6I0 96-786)
chain: ASRRDELLRADITSLLKALELSGHWEWALALLRWAGKEGAADASALEMVVRALGREGQHDAVCALLDETPLPPGSRLDVRAYTTVLHALSRAGRYERALELFAELRRQGVAPTLVTYNVVLDVYGRMGRSWPRIVALLDEMRAAGVEPDGFTASTVIAACCRDGLVDEAVAFFEDLKARGHAPCVVTYNALLQVFGKAGNYTEALRVLGEMEQNGCQPDAVTYNELAGTYARAGFFEEAARCLDTMASKGLLPNAFTYNTVMTAYGNVGKVDEALALFDQMKKTGFVPNVNTYNLVLGMLGKKSRFTVMLEMLGEMSRSGCTPNRVTWNTMLAVCGKRGMEDYVTRVLEGMRSCGVELSRDTYNTLIAAYGRCGSRTNAFKMYNEMTSAGFTPCITTYNALLNVLSRQGDWSTAQSIVSKMRTKGFKPNEQSYSLLLQCYAKGGNVAGIAAIENEVYGSGAVFPSWVILRTLVIANFKCRRLDGMETAFQEVKARGYNPDLVIFNSMLSIYAKNGMYSKATEVFDSIKRSGLSPDLITYNSLMDMYAKCSESWEAEKILNQLKCSQTMKPDVVSYNTVINGFCKQGLVKEAQRVLSEMVADGMAPCAVTYHTLVGGYSSLEMFSEAREVIGYMVQHGLKPMELTYRRVVESYCRAKRFEEARGFLSEVSETDLDFDKKALEAYIEDAQFGR
B6: CFM3 (protein, UniProt A7XN92 83-842)
chain: ILSRLRRAGYSGEDPRAAAPPHPPRGSVEDVFRADDGVLPNARGGFDADDEERALGDARFPWERPMPPPEAAPRSARSPTWMAELTLPAAELRRLRHAAIRIKSRTKVGGAGVTREIVEKIKEKWKTEEVVRVKVSGTPALNMRLFHEILERKTGGLVIWRSGTSVSLYRGVDYDEPEPTKKSKKNSQSLAMDFPIKGSSNPSLLPTETANSVRDSNVALVSNAAKEELVVQAPEIKYEDEIDKLLDELGPRYTDWPGSDPLPVDADLLPANMPGYKPPFRVLPYGVRPSLSRRDTTNLRRLARGLPPHFALGRSRQLQGLANAMVKLWEKSSIAKIALKRGVQLTTSERMAEDIKKLTGGVMLSRNNEFIVFYRGKDFLSSELAEVLLERERLAKSLQDEEEARRKAASYFSSAETYAQPTVAGTLGETLEANSKYGTKHDENHADKMARTIEAARHADLVRKLEWKLSLAQKKMEKAERVLGKVETALRPTEDSRPPETITDEERFMFRKLGLRMKAFLLLGRRGVFDGTIENMHLHWKYRELVKILVKAKSFADVKRIALSLEAESGGILVSVDKVSKGYAIVVFRGKNYRRPSSLRPRNLLSKRKALARSIELQRHQALSRHFAKLNRKVERLKAELVQMEDVKEQGDEELYAKLDAAYSSDDEDMEDEDDEAYLKRFDNEVAGATADDDGSDDYTSAADEADYPDSDDEAGDCSEDEGEDDEDEAAAGVSDAGFHGEVVGFSSDTDRRNHDVNEY

The target in the assay is Zm-mTERF4 (maize (endogenous in maize chloroplast stroma)). Description: co-IP; maize chloroplast stromal extract immunoprecipitated with Zm-mTERF4 antibody; pellets and supernatants probed on immunoblots; immunoprecipitation with OE16 antibody as negative control.
As for B1, the binding result is given as “binds”.

With B2, the binding result is given as “binds”.

Consider B3, for which the binding result was “binds”.

On to B4, for which the binding entry is on record as “binds”.

As for B5, the binding entry is “no binding”.

For B6, the binding entry is recorded as “binds”.
